This test concerns the target TurboID-DR6 (UniProt O75509). The test is described as follows: proximity labelling.

The source of these data is publication doi:10.1101/2024.10.21.619555.

No constants are given. Whether binding was seen depends on the method and setting. In cells and extracts the contact can be indirect. These calls come from enrichment with a bait or labelling near it, and not all partners need be listed.

B1: proline-rich protein 4 (PRR4) (protein, UniProt Q16378 17-134)
chain: QSTDNDVNYEDFTFTIPDVEDSSQRPDQGPQRPPPEGLLPRPPGDSGNQDDGPQQRPPKPGGHHRHPPPPPFQNQQRPPRRGHRQLSLPRFPSVSLQEASSFFQRDRPARHPQEQPLW
Take B1: the binding result is “binds”.

B2: lacritin (LACRT) (protein, UniProt Q9GZZ8 20-138)
chain: EDASSDSTGADPAQEAGTSKPNEEISGPAEPASPPETTTTAQETSAAAVQGTAKVTSSRQELNPLKSIVEKSILLTEQALAKAGKGMHGGVPGGKQFIENGSEFAQKLLKKFSLLKPWA
With B2, the binding result is “binds”.
